Data from paper PMC7819943, “Rice protein-binding microarrays: a tool to detect cis-acting elements near promoter regions in rice”.
The list shows a part of the results.

Protein sequences, listed by entry. Tags and fused reporters are not part of them.
UniProt Q0JBA9, entry or part of it: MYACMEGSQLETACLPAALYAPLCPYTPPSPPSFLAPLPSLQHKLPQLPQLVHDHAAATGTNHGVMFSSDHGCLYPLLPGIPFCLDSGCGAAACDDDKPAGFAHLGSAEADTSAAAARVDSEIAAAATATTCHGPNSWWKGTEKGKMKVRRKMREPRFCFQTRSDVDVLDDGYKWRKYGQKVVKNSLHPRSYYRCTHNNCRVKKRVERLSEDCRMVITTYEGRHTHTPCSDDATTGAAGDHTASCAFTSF

Molecular target: OsWRKY34 (Oryza sativa, UniProt Q0JBA9 1-250)
Assay: protein-binding microarray (RPBM); PBS, 2% BSA, 51.3 ng/ul salmon testes DNA, 50 uM zinc acetate, 200 nM TF, 25 C, 1 h; high values mean tight binding
Conditions: protein: recombinant; tags: N-terminal polyhistidine and DsRed monomer fusion (pET32a); label: CyDye5-dUTP incorporated in the synthesized complementary strand; 3' TTTTT single-stranded linker to array surface; dsDNA, one strand shown
How it was run: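 Using Ni–NTA, transcription factors fused N-terminally to polyhistidine and DsRed were purified after expression in E. coli BL21-CodonPlus. These were incubated at 200 nM with a blocked, double-stranded custom Agilent array for 1 h at 25 °C in a buffer containing 50 µM zinc acetate, and the array was washed. The binding signal is per-feature fluorescence intensity (arbitrary units) on an Axon 4000B scanner.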

Sequence	binding signal
CTGCTCATCGTCGCTTCTTCCTTGATCAGCCATCTCTATACGGAGTCACCTAGTGCAG	8430 fluorescence intensity (a.u.)
ATGACTATTACTATGTTCCTGACATATTGCACACCCTAGACGGAGTCACCTAGTGCAG	8270 fluorescence intensity (a.u.)
CTAAATTGTATTTCTATATGGACTTTGCTTTTTCTTTTTCCGGAGTCACCTAGTGCAG	10900 fluorescence intensity (a.u.)
TGACGTCACTCAGGCAGTCAACTATCGTCACTCTACCACTCGGAGTCACCTAGTGCAG	8540 fluorescence intensity (a.u.)
AGGAGGGAGCCATGGGTGGGAGGGGAAGGAGAGATGCGGACGGAGTCACCTAGTGCAG	9440 fluorescence intensity (a.u.)
TTCGTCAATGTGCCATCCATCCAATGTATGCAACTGTCAACGGAGTCACCTAGTGCAG	8090 fluorescence intensity (a.u.)
GTTCACCACGCCGTCCCCGAAGTTTACAGTCTCCACCATGCGGAGTCACCTAGTGCAG	8100 fluorescence intensity (a.u.)
GTCTGCCACGGGTTCCTCGTCTCTTCCTCTCCATTTCTACCGGAGTCACCTAGTGCAG	9670 fluorescence intensity (a.u.)
CTGGAGTATTAGAATTCAGGCTTGGCTTCCAGTGTTCTGTCGGAGTCACCTAGTGCAG	9640 fluorescence intensity (a.u.)
TTTTCAATTTTCTGGTTGAGTAGGGGTTCGGAATTTTCTTCGGAGTCACCTAGTGCAG	10600 fluorescence intensity (a.u.)
ATAGGATTTTCCCAAAAGGTTAGAGTGGACGGGAACAAAACGGAGTCACCTAGTGCAG	10400 fluorescence intensity (a.u.)
AAAAAACATTTTCATTCTTCGCTTCAATTGTATAATACTACGGAGTCACCTAGTGCAG	8730 fluorescence intensity (a.u.)
CATCGCGTGATTCCGTTTTGCGCCGCCTCGCCTTTTGGATCGGAGTCACCTAGTGCAG	11500 fluorescence intensity (a.u.)
TAGCTACCTAAGCTTAGCTCACATTCTTCTCGCTTTCTCACGGAGTCACCTAGTGCAG	12000 fluorescence intensity (a.u.)
TCCATGCCATGCCATTCATCACTTTGATCCAATATTACCACGGAGTCACCTAGTGCAG	9520 fluorescence intensity (a.u.)
GTAGTTGCGTTTTCATATAATGGATATTATTTATTCATGTCGGAGTCACCTAGTGCAG	11700 fluorescence intensity (a.u.)
ATGTCCAGCCTTATGCTTTCACAACTAAGTCTCTGTTTGTCGGAGTCACCTAGTGCAG	8750 fluorescence intensity (a.u.)
TAATGGTATCTTGCAACTCATGTATATTTGTGATGGTATTCGGAGTCACCTAGTGCAG	11800 fluorescence intensity (a.u.)
TGGGGTTTGATTATTTGACATTTTGGTATATTTTCATCAACGGAGTCACCTAGTGCAG	12400 fluorescence intensity (a.u.)
GTTTGAATTCACACTGCACCATCTGATTACCCTTTCTCACCGGAGTCACCTAGTGCAG	10300 fluorescence intensity (a.u.)
ACCTCCATTCTCTCTGCTTCCTCTTCCTCTCCGCGTAGAGCGGAGTCACCTAGTGCAG	9040 fluorescence intensity (a.u.)

Sequence	binding signal
GTACACGCCACCTTCATCTATAGCCGCCGCATTTTACTACCGGAGTCACCTAGTGCAG	8460 fluorescence intensity (a.u.)
TCGCGTGTGGAGGGGAGGAGTGTGTGGGATATCCGGAAGCCGGAGTCACCTAGTGCAG	9860 fluorescence intensity (a.u.)
AGGCCGCCCTTCACCGCAACGACGGCGGGCGCTCGCGCTCCGGAGTCACCTAGTGCAG	15000 fluorescence intensity (a.u.)
GGTGATCTTTGTATTCTTTTTCTGCAGCGAACATATAGCTCGGAGTCACCTAGTGCAG	16300 fluorescence intensity (a.u.)
CTCGGGTTCCACCCACAACTTCATCTCCACATTGGCTGCCCGGAGTCACCTAGTGCAG	8120 fluorescence intensity (a.u.)
TTCGTGGCGCCATATATTATGGTCTTTGTTTGGGCAGAACCGGAGTCACCTAGTGCAG	8380 fluorescence intensity (a.u.)
CCTGTCTATGTATGGGTAATGGGTGTACTATCTTTTCCATCGGAGTCACCTAGTGCAG	10500 fluorescence intensity (a.u.)
TATATATATATATATATATATATATATATATAAACCATGCCGGAGTCACCTAGTGCAG	10600 fluorescence intensity (a.u.)
AAGTCCACAGACTTCACCGCCGCTGTTACCGCGATCCCGGCGGAGTCACCTAGTGCAG	10200 fluorescence intensity (a.u.)
TAAACACGTCATTGCTCAGGTATTCGGATATTATTTTTTTCGGAGTCACCTAGTGCAG	9730 fluorescence intensity (a.u.)
TGCTGCACGTCATCCGCCCCGAAGCCCAATCCCTTGGCCACGGAGTCACCTAGTGCAG	8770 fluorescence intensity (a.u.)
CGACCTCTCACGCATCAACCCACTTGTAAACCACCCCGTCCGGAGTCACCTAGTGCAG	8920 fluorescence intensity (a.u.)
AAGTTGATGCTTTTGGACAGGGTTGACTTTACTTCTTTGGCGGAGTCACCTAGTGCAG	14000 fluorescence intensity (a.u.)
TTTCCACTGACACGCGCTAACAATTGCTACTATTTGCATGCGGAGTCACCTAGTGCAG	8420 fluorescence intensity (a.u.)
GGTTATTCATATGTTTTTCATACGTTTTACAATCATCTAACGGAGTCACCTAGTGCAG	8360 fluorescence intensity (a.u.)
CCACCCCAGCCCATCCATCCGACGGCCCAGATCACGCGCGCGGAGTCACCTAGTGCAG	8500 fluorescence intensity (a.u.)
GCTTTTTAGCTCTGCATCTATCTATCTCCTTTTTGCTTTTCGGAGTCACCTAGTGCAG	8600 fluorescence intensity (a.u.)
TATACTCCTTATCTTGGATTGGTAGTCTTTAGTTTGCTTTCGGAGTCACCTAGTGCAG	9320 fluorescence intensity (a.u.)
CTGGCCCGGGGTCGGGTGCGACGCGCGGGCGGGGCGGGTGCGGAGTCACCTAGTGCAG	11100 fluorescence intensity (a.u.)
GAAGAGGGGAAGGGGAGAGGAGGGAGGCGAGGAGCATGGCCGGAGTCACCTAGTGCAG	8120 fluorescence intensity (a.u.)
TTCATATTCAATGTTTGATCGTCCGTCTTATTTGAAGATTCGGAGTCACCTAGTGCAG	8650 fluorescence intensity (a.u.)

Rewritten as labelled records: entries from further up.
CCTGTCTATGTATGGGTAATGGGTGTACTATCTTTTCCATCGGAGTCACCTAGTGCAG
  binding signal = 10500 fluorescence intensity (a.u.)
AAGTTGATGCTTTTGGACAGGGTTGACTTTACTTCTTTGGCGGAGTCACCTAGTGCAG
  binding signal = 14000 fluorescence intensity (a.u.)

Going on with the list.

Sequence	binding signal
AATAGTTAGTTTTTTTTCACTTTGTACAAGCATTTTTTACCGGAGTCACCTAGTGCAG	13000 fluorescence intensity (a.u.)
CATCAGTACAGGCCCAACTTAAAAATTGCTCGGCCCATTTCGGAGTCACCTAGTGCAG	8850 fluorescence intensity (a.u.)
CTCTTCTTCTTCGGATTCGCAAGGTCCAAGGGTTTCTCCGCGGAGTCACCTAGTGCAG	10100 fluorescence intensity (a.u.)
TGCGCCATTAGCGTCACATGGGGTGGGCTCTTGTACACTACGGAGTCACCTAGTGCAG	9890 fluorescence intensity (a.u.)
ATCACTTATTTGCTTATTTGTTATTCACTCGTTTGAATCACGGAGTCACCTAGTGCAG	10300 fluorescence intensity (a.u.)
CACCCCTAACCTCGAAATCCTAATCCGCAGATCCTCTGTCCGGAGTCACCTAGTGCAG	8210 fluorescence intensity (a.u.)
TAGGCAATGCCCGCCGCTGATCTCTTCCTGTCCTTTTCCACGGAGTCACCTAGTGCAG	8410 fluorescence intensity (a.u.)
ACCTCACCCCTCTCTTTCTCTGTTTTCTCTCTCTGCTACTCGGAGTCACCTAGTGCAG	10600 fluorescence intensity (a.u.)
GGCCTTGTTCGGTTGGTCCGGGAATGACTGGGGTTGGGCTCGGAGTCACCTAGTGCAG	9210 fluorescence intensity (a.u.)
ACCGCCGCCGCCACACTTCCCCAGCCGCCGCCAACCGCCACGGAGTCACCTAGTGCAG	8230 fluorescence intensity (a.u.)
CCCACCTCAGCATCCGTCGTCGCTGTCTGCGCACCTCTGCCGGAGTCACCTAGTGCAG	9010 fluorescence intensity (a.u.)
CAACTCATATCTCTCGTTTTCCACGCGCACGCTTTTCAAACGGAGTCACCTAGTGCAG	10300 fluorescence intensity (a.u.)
CCCGTTTGTTATCCGTTCGCCCGCAACGCAACACGGCCACCGGAGTCACCTAGTGCAG	9480 fluorescence intensity (a.u.)
TTAAACTTAAAGCAGTTTGACTTCGATCAAAGTCAAAACACGGAGTCACCTAGTGCAG	10700 fluorescence intensity (a.u.)
TCCCGTGGTCTCGCCACCCCGTCGTTCCTGCCGCTCGCGCCGGAGTCACCTAGTGCAG	9080 fluorescence intensity (a.u.)
TGTTTTTCCTGTGTTTTGCAATCCTCTGTTTTACACTTACCGGAGTCACCTAGTGCAG	13000 fluorescence intensity (a.u.)
GCGGTTGACTTAATAGAGGGGCTATTCATATTGATGTTAACGGAGTCACCTAGTGCAG	8560 fluorescence intensity (a.u.)
TTTCCTTTTCTTTTTCTATTTATTTTTATGGGATATTTCGCGGAGTCACCTAGTGCAG	8680 fluorescence intensity (a.u.)
ATATATATATATATATATATATGTGTGTGTGTGTGTGTCCCGGAGTCACCTAGTGCAG	14500 fluorescence intensity (a.u.)
CATCCCTGCTTATTTCTGCCAGTTGCGTCGATTGGTATCTCGGAGTCACCTAGTGCAG	10400 fluorescence intensity (a.u.)
CCCAAGGAATTGTGCTTGCTCACCAAGACACGCCAGCTTCCGGAGTCACCTAGTGCAG	8510 fluorescence intensity (a.u.)

Sequence	binding signal
TCACCACATTGTGCTTTATTGCTTGTTTTCGATCTATCTACGGAGTCACCTAGTGCAG	10100 fluorescence intensity (a.u.)
ACGCTCTTCCCAATCGAGGTTAGTCTCCATCTTGCTGTTCCGGAGTCACCTAGTGCAG	8580 fluorescence intensity (a.u.)
TTGTTGGTCTCTCCATGACTCCACTTTTAAATGGATCTGCCGGAGTCACCTAGTGCAG	8730 fluorescence intensity (a.u.)
ATACAGGGAGGGTCCATTTGATTATTATCCAGCTGTTCTTCGGAGTCACCTAGTGCAG	13300 fluorescence intensity (a.u.)
CCCGGCCGCCGCGCCGCAGCTTTGACCGGCGTCCCATGGCCGGAGTCACCTAGTGCAG	9250 fluorescence intensity (a.u.)
CGAAAAGCGGCGGGTTCCCTTCCGTTTCCTGCCCAACCGCCGGAGTCACCTAGTGCAG	8130 fluorescence intensity (a.u.)
TGCCACCTCCACCGTGCGTCGCTCCTTTCCCGGCGTCTCCCGGAGTCACCTAGTGCAG	10300 fluorescence intensity (a.u.)
CTCCGTCCACCCCGCCGCACCGACACTCTCCTCCGCCATGCGGAGTCACCTAGTGCAG	9660 fluorescence intensity (a.u.)
AATTGCATCTTTTGTTTGTTGTTGCTTGTGCTTTGGTGTGCGGAGTCACCTAGTGCAG	9110 fluorescence intensity (a.u.)
ATCACAGGTTTGCTCCCATACATCTTTTGCATTTGTACTACGGAGTCACCTAGTGCAG	9630 fluorescence intensity (a.u.)
CGACACCCTATATACCCGATGTGACACGCCAAAACTTTACCGGAGTCACCTAGTGCAG	8140 fluorescence intensity (a.u.)
TCTGTGTTTTTCCTGTGGTCCAATCAAACGGTCATTCCTACGGAGTCACCTAGTGCAG	9050 fluorescence intensity (a.u.)
AGTGGCCCGACTCTCTCATCCCTCCGGCTTCCGGAATCCCCGGAGTCACCTAGTGCAG	9200 fluorescence intensity (a.u.)
GTGATTTGACTGTTCCTTTTTTATTAGAGGGTAAGTTGACCGGAGTCACCTAGTGCAG	9330 fluorescence intensity (a.u.)
GTACTATTTTTGTGATTATTTTTTTCTGCCGTTCAAACCACGGAGTCACCTAGTGCAG	8040 fluorescence intensity (a.u.)
ACCACCTTGCTCTTCCATCCCTAGCCACTTGGTATAATTGCGGAGTCACCTAGTGCAG	9870 fluorescence intensity (a.u.)
TTTTTTTCCTCTTTTTTAACGAGTTTACTCCTGTGACTCTCGGAGTCACCTAGTGCAG	9000 fluorescence intensity (a.u.)
TTGCGTGTGTTTTTGTTTTTTTTAAAGCCCACTTGAATCTCGGAGTCACCTAGTGCAG	8460 fluorescence intensity (a.u.)
TTGTCTGTTTATTCCGCTCAAGACTTTATTCAGTAGAATACGGAGTCACCTAGTGCAG	8630 fluorescence intensity (a.u.)
TTCTTTTGTTTGTCATATCTGTTTTAGCTGTAGTGTGTTTCGGAGTCACCTAGTGCAG	11600 fluorescence intensity (a.u.)
TCTCAGGTTTCTGCTTTCCTCTTGCACTGTCCGAGCTTATCGGAGTCACCTAGTGCAG	9740 fluorescence intensity (a.u.)
